# Measured values from the supplement of paper PMC12823440, “Inhibitors supercharge kinase turnover through native proteolytic circuits” (Nature, 2025).
# By UniProt entry, the sequences of proteins in these tests, tags left out.
# UniProt P11362, whole entry, looked up: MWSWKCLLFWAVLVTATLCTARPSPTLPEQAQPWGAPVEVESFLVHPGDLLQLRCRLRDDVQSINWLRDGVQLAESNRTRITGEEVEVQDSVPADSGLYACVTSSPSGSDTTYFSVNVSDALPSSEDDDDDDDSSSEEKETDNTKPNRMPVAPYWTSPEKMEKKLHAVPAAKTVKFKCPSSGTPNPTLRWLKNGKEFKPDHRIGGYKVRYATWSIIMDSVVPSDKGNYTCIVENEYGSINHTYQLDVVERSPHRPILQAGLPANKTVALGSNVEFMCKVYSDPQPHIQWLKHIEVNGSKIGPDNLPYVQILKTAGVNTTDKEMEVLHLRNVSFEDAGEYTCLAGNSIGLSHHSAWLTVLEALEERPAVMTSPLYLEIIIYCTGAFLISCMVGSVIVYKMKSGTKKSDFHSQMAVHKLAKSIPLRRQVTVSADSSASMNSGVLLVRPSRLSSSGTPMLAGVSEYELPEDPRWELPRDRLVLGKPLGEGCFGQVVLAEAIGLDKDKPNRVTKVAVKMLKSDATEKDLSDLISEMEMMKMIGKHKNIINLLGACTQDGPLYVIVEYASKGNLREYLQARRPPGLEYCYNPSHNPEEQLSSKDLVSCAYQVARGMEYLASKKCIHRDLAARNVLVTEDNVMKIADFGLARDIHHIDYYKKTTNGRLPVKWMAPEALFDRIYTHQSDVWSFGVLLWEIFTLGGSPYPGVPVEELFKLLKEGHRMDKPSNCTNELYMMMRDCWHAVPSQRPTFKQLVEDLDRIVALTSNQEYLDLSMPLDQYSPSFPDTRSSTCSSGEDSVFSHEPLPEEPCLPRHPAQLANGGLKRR
# UniProt P21802, whole entry, looked up: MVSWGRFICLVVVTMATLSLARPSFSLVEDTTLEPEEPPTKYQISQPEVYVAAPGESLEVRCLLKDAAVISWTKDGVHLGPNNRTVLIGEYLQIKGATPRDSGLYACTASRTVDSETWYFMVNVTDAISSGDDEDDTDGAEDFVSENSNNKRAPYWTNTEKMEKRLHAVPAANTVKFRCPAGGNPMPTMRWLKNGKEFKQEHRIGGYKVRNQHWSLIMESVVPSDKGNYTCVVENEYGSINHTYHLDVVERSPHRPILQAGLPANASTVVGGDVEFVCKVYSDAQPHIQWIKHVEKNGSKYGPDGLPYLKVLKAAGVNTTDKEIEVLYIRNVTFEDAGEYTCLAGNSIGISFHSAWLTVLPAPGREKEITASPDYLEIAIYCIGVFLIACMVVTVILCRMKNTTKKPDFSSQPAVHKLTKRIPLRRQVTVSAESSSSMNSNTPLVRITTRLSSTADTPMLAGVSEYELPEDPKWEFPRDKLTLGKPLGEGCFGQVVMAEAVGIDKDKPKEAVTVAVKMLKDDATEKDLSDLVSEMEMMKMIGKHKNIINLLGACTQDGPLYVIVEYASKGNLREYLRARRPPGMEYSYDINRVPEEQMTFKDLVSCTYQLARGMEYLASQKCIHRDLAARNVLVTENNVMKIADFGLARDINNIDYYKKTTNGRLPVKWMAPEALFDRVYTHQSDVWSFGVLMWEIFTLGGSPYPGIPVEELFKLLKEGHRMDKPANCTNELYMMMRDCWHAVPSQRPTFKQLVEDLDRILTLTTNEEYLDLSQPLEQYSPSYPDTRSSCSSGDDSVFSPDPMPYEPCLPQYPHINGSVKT
# Where a name gives a salt, the structure may show the parent alone. The list shows a part of the results. The calls rarely recur for the same compound in another form.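 In K562 cells expressing nanoluciferase-fused kinases, luminescence was recorded at 4 h intervals between 2 and 18 h, normalized as percent of control with DMSO at 100% and a positive control at 0%. A significant (2 sigma) signal drop marks a time point as decreased. The authors' rule for a hit is not shown and takes in more than the number of time points.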
# Molecular target: FGFR1 (UniProt P11362)
# Assay: kinase-Nluc reporter destabilization hit call (1 = scored as downregulated) (binary); higher = compound decreases kinase abundance
# Conditions: K562; 2-18 h
row,Structure (SMILES),kinase-Nluc reporter destabilization hit call
1,COc1ccc(N(C(=O)Oc2c(C)cccc2C)c2ccnc(Nc3ccc(N4CCN(C)CC4)cc3)n2)c(OC)c1 (2.5 µM),inactive: 0
2,COc1ccc2c(c1)[nH]c1c(C)nccc12 [Harmine] (10 µM),inactive: 0
3,O=c1cc(O)c2ccccc2o1 [4-Hydroxycoumarin] (10 µM),inactive: 0
4,CC(=O)c1c(O)c(C)c(O)c(Cc2c(O)c3c(c(C(=O)/C=C/c4ccccc4)c2O)OC(C)(C)C=C3)c1O [Rottlerin] (2 µM),inactive: 0
5,N#CC(C#N)=Cc1ccc(O)c(O)c1 [Tyrphostin 23] (10 µM),inactive: 0
6,C/C(O)=C(\C#N)C(=O)Nc1cc(Br)ccc1Br (10 µM),inactive: 0
7,Cc1ccccc1-n1c(Cn2ncc3c(N)ncnc32)nc2cccc(C)c2c1=O (10 µM),inactive: 0
8,COc1cc2c(cc1F)C(c1ccccc1Cl)=Nc1c(n[nH]c1C)N2 (0.5 µM),inactive: 0
9,COc1ccc2c(c1)/C(=C/c1cnc[nH]1)C(=O)N2 (2.5 µM),inactive: 0
10,O=[N+]([O-])/C=C/c1ccc2c(c1)OCO2 (2.5 µM),inactive: 0

# Molecular target: FGFR2 (UniProt P21802)
# Assay: as above
# Conditions: K562; 2-18 h
row,Structure (SMILES),kinase-Nluc reporter destabilization hit call
1,CC1=C[C@]23C(=O)[C@@H](C=C(CO)[C@@H](O)[C@]2(O)[C@H]1O)[C@H]1[C@@H](C[C@H]3C)C1(C)C [Ingenol] (10 µM),inactive: 0
2,C=C[C@H]1CN2CC[C@]3(C(=O)Nc4ccccc43)[C@@H]2C[C@@H]1/C(=C\OC)C(=O)OC [Corynoxeine] (2 µM),inactive: 0
3,O=C(O)c1sc2cc(Cl)ccc2c1Cl (10 µM),inactive: 0
4,C[C@H]1CC[C@]2(NC1)O[C@H]1C[C@H]3[C@@H]4CC[C@H]5C[C@@H](O)CC[C@]5(C)[C@H]4CC[C@]3(C)[C@H]1[C@@H]2C [Tomatidine (hydrochloride)] (10 µM),inactive: 0
5,O=C1C=CC[C@@H]2[C@H]3CCCN4CCC[C@@H](CN12)[C@@H]34 [Sophocarpine (monohydrate)] (2.5 µM),inactive: 0
6,Cc1n[nH]cc1-c1cc2nc([C@@H]3CC4CCN3CC4)[nH]c(=O)c2s1 [Simurosertib] (2.5 µM),inactive: 0
7,O=C(N[C@@H](COc1ccc2[nH]c(=O)[nH]c2c1)c1ccccc1)c1cccn(Cc2ccc(F)c(F)c2)c1=O (2.5 µM),inactive: 0
8,O=C(/C=C/c1ccccc1)OC[C@H]1O[C@@H](O[C@@H]2OC=C[C@H]3[C@H](O)[C@@H]4O[C@]4(CO)[C@@H]23)[C@H](O)[C@@H](O)[C@@H]1O [Picroside I] (10 µM),inactive: 0
9,C[C@@H]1CC[C@H]2[C@@H](C)C(=O)O[C@@H]3O[C@@]4(C)CC[C@@H]1[C@]32OO4 [Artemisinin] (10 µM),inactive: 0
10,N#CC(C#N)=Cc1ccc([N+](=O)[O-])c(O)c1 (10 µM),inactive: 0
11,C[C@H](CCC(=O)O)C[C@H](C)C[C@H](C)C(=O)/C=C(\O)[C@H](C)C[C@H](C)C/C=C/[C@@H](C)[C@@H](O)[C@@H](C)[C@@H](O)C[C@@H]1CC[C@@](C)([C@H]2CC[C@@](C)([C@@H](C)O)O2)O1 [Ionomycin (calcium)] (2.5 µM),inactive: 0
12,CC1C(=O)OC2C(O)C34C5OC(=O)C3(OC3OC(=O)C(O)C34C(C(C)(C)C)C5O)C12O (centres undefined) [Ginkgolide C] (10 µM),inactive: 0
13,Cn1cc(C2=C(c3cn(C4CCN(Cc5ccccn5)CC4)c4ccccc34)C(=O)NC2=O)c2ccccc21 [Enzastaurin] (10 µM),inactive: 0
14,O=c1[nH]c2ccccc2n1C1CCN(Cc2ccc(-c3[nH]c4cc5ncnc5cc4nc3-c3ccccc3)cc2)CC1 [AKT inhibitor VIII] (2.5 µM),inactive: 0
15,CCN1CCN(C(=O)Cc2ccc(Nc3ncc(F)c(Nc4ccc(C(=O)Nc5ccccc5Cl)cc4)n3)cc2)CC1 (2.5 µM),inactive: 0
16,C=CC(=O)N[C@H]1C=C(C)c2c(-c3cnc4ccccc4c3)c3c(N)ncnc3n2C1 (10 µM),inactive: 0
17,CC(C)(C)c1cc(C=C(C#N)C#N)cc(Br)c1O (2.5 µM),inactive: 0
18,CCCCNc1nc(N)c2[nH]c(=O)n(Cc3ccc(C)nc3)c2n1 (10 µM),inactive: 0
19,C=CC(=O)Nc1ccc2[nH]c(=O)n(C3CCN(Cc4ccc(-c5nc6cc[nH]c(=O)c6cc5-c5ccccc5)cc4)CC3)c2c1 [Borussertib] (10 µM),inactive: 0

# Random excerpt: 2 entries already listed
row,Structure (SMILES),kinase-Nluc reporter destabilization hit call
3,O=C(O)c1sc2cc(Cl)ccc2c1Cl (10 µM),inactive: 0
9,C[C@@H]1CC[C@H]2[C@@H](C)C(=O)O[C@@H]3O[C@@]4(C)CC[C@@H]1[C@]32OO4 [Artemisinin] (10 µM),inactive: 0
